In publication PMC8505262:
No constants are given. Whether binding was seen depends on the method and setting. In cells and extracts the contact can be indirect. These calls come from enrichment with a bait or labelling near it, and not all partners need be listed. Sequences can lack the tags named with a protein.

T1: HA-tagged Neurensin-2 (UniProt Q5HZK2)
T1 sequence: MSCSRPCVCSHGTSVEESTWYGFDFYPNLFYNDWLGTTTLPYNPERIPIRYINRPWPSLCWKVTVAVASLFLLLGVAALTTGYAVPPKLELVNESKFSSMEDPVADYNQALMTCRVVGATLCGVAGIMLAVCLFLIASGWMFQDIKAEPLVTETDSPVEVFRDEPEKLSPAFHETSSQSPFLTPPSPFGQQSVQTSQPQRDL

B1: Homer1 (protein, UniProt Q9Z2Y3 1-366)
chain: MGEQPIFSTRAHVFQIDPNTKKNWVPTSKHAVTVSYFYDSTRNVYRIISLDGSKAIINSTITPNMTFTKTSQKFGQWADSRANTVYGLGFSSEHHLSKFAEKFQEFKEAARLAKEKSQEKMELTSTPSQESAGGDLQSPLTPESINGTDDERTPDVTQNSEPRAEPTQNALPFPHSAGDRTQALSHASSAISKHWEAELATLKGNNAKLTAALLESTANVKQWKQQLAAYQEEAERLHKRVTELECVSSQANAVHSHKTELNQTVQELEETLKVKEEEIERLKQEIDNARELQEQRDSLTQKLQEVEIRNKDLEGQLSDLEQRLEKSQNEQEAFRSNLKTLLEILDGKIFELTELRDNLAKLLECS
B2: Homer3 (protein, UniProt Q99JP6 1-356)
chain: MSTAREQPIFSTRAHVFQIDPTTKRNWIPAGKHALTVSYFYDATRNVYRIISIGGAKAIINSTVTPNMTFTKTSQKFGQWADSRANTVYGLGFASEQQLTQFAEKFQEVKEAARLAREKSQDGGEFTSTGLALASHQVPPSPLVSTNGPGEEKLFRSQSADTPGPTERERLKKMLSEGSVGEVQWEAEFFALQDSNQRLAGALREANAAATQWRQQLEVQRAEAELLRQRVAELEAQVAVEPVRAGEKEATSQSVEQLEARVQTKDQTLKNQSTGTREAPDTAEREETQQQVQDLETRNAELEQQLRSMECNLEEARAERERARAEVGRAAQLLDVRLFELSELREGLARLAEAAP

Target: T1, HA-tagged Neurensin-2
Experiment: affinity purification with mass spectrometry; N2a cells transfected with HA-tagged Neurensin-2 or HA control; the tagged protein immunoprecipitated, partners identified by mass spectrometry

Row | Binder | binding
1 | B1 | binds
2 | B2 | binds
